Laboratory results: PubChem BioAssay AID1259405 (NCATS, 2018)
The deposit covers about 50,000 reagents; this is a part drawn at random. Over the whole deposit, about 4,000 (8%) got an active call. 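Mouse siRNA library applied to hamster cells; one well for each siRNA.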 The numbers tell different reagents against one gene apart. Reagent sequences are not shown.

Test: 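Knock-downs that lift recombinant protein yield in hamster ovary cells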 (primary screen)
Cells: Chinese hamster CHO-K1 ovary cells with stable secreted eGFP expression
Reagents: single siRNA against mouse genes, 0.8 pmol siRNA per well (2 µl of 400 nM stock)
Time to read-out: 3 days
Measurement: 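Percent of the per-plate non-targeting control median for intracellular GFP per well by laser scanning cytometry and for cell viability by ATP luminescence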
Reading the numbers: GFP, % of control: higher = more GFP per well, higher productivity; viability (ATP), % of control: higher = more viable cells (more ATP)
Rule for the call: 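Called active when intracellular GFP, relative to negative control, is at or above 120%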

gene symbol | reagent no. | GFP, % of control | viability (ATP), % of control | Outcome
Tlx3 (GeneID 27140) | 1 | 81.7 | 56.3 | inactive
Tlx3 (GeneID 27140) | 2 | 72.3 | 79.3 | inactive
Pms1 (GeneID 227099) | 1 | 133 | 153 | active
Pms1 (GeneID 227099) | 2 | 83.3 | 83.3 | inactive
Tubgcp4 (GeneID 51885) | 1 | 58.5 | 47.6 | inactive
Tubgcp4 (GeneID 51885) | 2 | 95.5 | 89.6 | inactive
Tubgcp4 (GeneID 51885) | 3 | 44.9 | 66.3 | inactive
Or4d6 (GeneID 258673) | 1 | 92.5 | 80.5 | inactive
Or4d6 (GeneID 258673) | 2 | 85.5 | 68 | inactive
Or4d6 (GeneID 258673) | 3 | 56.3 | 108 | inactive
Atn1 (GeneID 13498) | 1 | 95.3 | 87.4 | inactive
Atn1 (GeneID 13498) | 2 | 99.8 | 54.1 | inactive
Atn1 (GeneID 13498) | 3 | 94.1 | 73.8 | inactive
Anapc13 (GeneID 69010) | 1 | 92.9 | 69.7 | inactive
Anapc13 (GeneID 69010) | 2 | 58.6 | 47.2 | inactive
Anapc13 (GeneID 69010) | 3 | 78.3 | 47.5 | inactive
Zfp629 (GeneID 320683) | 1 | 44.8 | 69.6 | inactive
Zfp629 (GeneID 320683) | 2 | 63.6 | 59.5 | inactive
Zfp629 (GeneID 320683) | 3 | 75.1 | 103 | inactive
4933414I15Rik (GeneID 74408) | 1 | 90.1 | 86.2 | inactive
4933414I15Rik (GeneID 74408) | 2 | 140 | 98.2 | active
4933414I15Rik (GeneID 74408) | 3 | 122 | 117 | active
Atp1b3 (GeneID 11933) | 1 | 60.4 | 79.4 | inactive
Atp1b3 (GeneID 11933) | 2 | 152 | 77.1 | active
Atp1b3 (GeneID 11933) | 3 | 81.2 | 84.2 | inactive
Cdx1 (GeneID 12590) | 1 | 98.8 | 97.8 | inactive
Cdx1 (GeneID 12590) | 2 | 122 | 103 | active
Cdx1 (GeneID 12590) | 3 | 105 | 86.1 | inactive
Tex19.2 (GeneID 70956) | 1 | 102 | 99.1 | inactive
Tex19.2 (GeneID 70956) | 2 | 109 | 79.9 | inactive
Tex19.2 (GeneID 70956) | 3 | 53.6 | 82.6 | inactive
Rnf13 (GeneID 24017) | 1 | 86.1 | 92.4 | inactive
Rnf13 (GeneID 24017) | 2 | 74.2 | 77.7 | inactive
Rnf13 (GeneID 24017) | 3 | 72.8 | 70.7 | inactive
Sema3f (GeneID 20350) | 1 | 97 | 83.9 | inactive
Sema3f (GeneID 20350) | 2 | 85.3 | 97.2 | inactive
Sema3f (GeneID 20350) | 3 | 73.1 | 71.5 | inactive
Defb4 (GeneID 56519) | 1 | 63.7 | 67.4 | inactive
Defb4 (GeneID 56519) | 2 | 106 | 74.5 | inactive
Defb4 (GeneID 56519) | 3 | 77.4 | 72.1 | inactive
2900026A02Rik (GeneID 243219) | 1 | 62.3 | 65.5 | inactive
2900026A02Rik (GeneID 243219) | 2 | 48.6 | 45.6 | inactive
2900026A02Rik (GeneID 243219) | 3 | 84.4 | 61.9 | inactive
Hspa13 (GeneID 110920) | 1 | 129 | 134 | active
Hspa13 (GeneID 110920) | 2 | 92.5 | 87.2 | inactive
Mtfr1l (GeneID 76824) | 1 | 109 | 90.2 | inactive
Mtfr1l (GeneID 76824) | 2 | 79.8 | 79.1 | inactive
Mtfr1l (GeneID 76824) | 3 | 80.5 | 71.7 | inactive
Gm11437 (GeneID 628813) | 1 | 38 | 70.6 | inactive
Gm11437 (GeneID 628813) | 2 | 81.8 | 75.7 | inactive
Gm11437 (GeneID 628813) | 3 | 45.3 | 56.1 | inactive
Arhgef37 (GeneID 328967) | 1 | 59.2 | 57 | inactive
Arhgef37 (GeneID 328967) | 2 | 69 | 82.1 | inactive
Arhgef37 (GeneID 328967) | 3 | 150 | 118 | active
Csn1s1 (GeneID 12990) | 1 | 92.5 | 97.6 | inactive
Csn1s1 (GeneID 12990) | 2 | 51.9 | 67.4 | inactive
Csn1s1 (GeneID 12990) | 3 | 60.1 | 112 | inactive
